# Where a name gives a salt, the structure may show the parent alone. The list shows a part of the results. The calls rarely recur for the same compound in another form.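 Kinases were expressed as nanoluciferase fusions in K562 cells and luminescence was read every 4 h between 2 and 18 h as percent of control, DMSO set to 100% and a positive control to 0%. A time point counts as decreased when the signal drops significantly (2 sigma). The hit call is the authors' own, does not follow from the count of time points alone, and its rule is not shown.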
# The chains behind the UniProt entries cited, without tags or fusion partners. Where a name states a change or a piece, a line headed by the entry shows the natural chain unless it says otherwise.
# UniProt P31152, whole entry: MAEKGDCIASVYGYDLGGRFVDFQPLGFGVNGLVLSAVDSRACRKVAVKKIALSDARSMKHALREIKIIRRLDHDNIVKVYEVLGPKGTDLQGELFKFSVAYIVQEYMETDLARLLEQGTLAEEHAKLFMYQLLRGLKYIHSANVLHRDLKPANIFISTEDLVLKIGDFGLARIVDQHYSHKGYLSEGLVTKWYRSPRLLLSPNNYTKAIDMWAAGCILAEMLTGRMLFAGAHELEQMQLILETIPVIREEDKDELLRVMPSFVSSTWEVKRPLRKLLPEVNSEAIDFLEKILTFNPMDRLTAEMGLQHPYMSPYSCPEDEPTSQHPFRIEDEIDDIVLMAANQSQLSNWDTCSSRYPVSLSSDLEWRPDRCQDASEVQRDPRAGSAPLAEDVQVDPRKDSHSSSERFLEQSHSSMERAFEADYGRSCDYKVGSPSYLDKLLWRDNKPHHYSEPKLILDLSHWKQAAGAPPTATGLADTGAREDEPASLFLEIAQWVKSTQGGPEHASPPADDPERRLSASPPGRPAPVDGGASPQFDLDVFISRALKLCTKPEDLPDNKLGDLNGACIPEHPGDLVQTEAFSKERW
# UniProt Q9BUB5: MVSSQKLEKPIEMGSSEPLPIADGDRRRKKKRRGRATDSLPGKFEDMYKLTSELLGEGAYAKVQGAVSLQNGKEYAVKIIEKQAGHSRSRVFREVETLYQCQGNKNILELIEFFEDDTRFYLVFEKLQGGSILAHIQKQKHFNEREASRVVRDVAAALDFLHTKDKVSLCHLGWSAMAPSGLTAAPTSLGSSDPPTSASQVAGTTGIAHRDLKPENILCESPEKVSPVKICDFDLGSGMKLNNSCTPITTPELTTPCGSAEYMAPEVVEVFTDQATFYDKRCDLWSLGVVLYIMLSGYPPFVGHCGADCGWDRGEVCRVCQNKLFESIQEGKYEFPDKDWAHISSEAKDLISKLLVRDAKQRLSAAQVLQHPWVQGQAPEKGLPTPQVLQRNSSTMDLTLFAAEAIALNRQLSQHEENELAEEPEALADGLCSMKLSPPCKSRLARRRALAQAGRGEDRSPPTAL
# UniProt O96013: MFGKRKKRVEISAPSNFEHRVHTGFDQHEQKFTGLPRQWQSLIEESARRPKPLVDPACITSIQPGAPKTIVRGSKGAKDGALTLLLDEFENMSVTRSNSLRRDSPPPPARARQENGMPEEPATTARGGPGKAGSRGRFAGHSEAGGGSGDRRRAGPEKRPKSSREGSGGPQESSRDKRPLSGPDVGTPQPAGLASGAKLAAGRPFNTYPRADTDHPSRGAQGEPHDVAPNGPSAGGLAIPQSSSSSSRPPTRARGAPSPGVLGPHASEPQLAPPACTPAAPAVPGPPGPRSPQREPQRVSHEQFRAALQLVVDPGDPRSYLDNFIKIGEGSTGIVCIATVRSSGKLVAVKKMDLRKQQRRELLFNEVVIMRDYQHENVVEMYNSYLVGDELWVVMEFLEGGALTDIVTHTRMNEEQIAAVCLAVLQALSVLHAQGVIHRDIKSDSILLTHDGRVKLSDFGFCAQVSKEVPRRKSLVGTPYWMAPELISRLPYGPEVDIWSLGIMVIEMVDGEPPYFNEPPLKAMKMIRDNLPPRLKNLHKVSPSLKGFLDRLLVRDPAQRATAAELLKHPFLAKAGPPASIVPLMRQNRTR
# UniProt Q96KB5: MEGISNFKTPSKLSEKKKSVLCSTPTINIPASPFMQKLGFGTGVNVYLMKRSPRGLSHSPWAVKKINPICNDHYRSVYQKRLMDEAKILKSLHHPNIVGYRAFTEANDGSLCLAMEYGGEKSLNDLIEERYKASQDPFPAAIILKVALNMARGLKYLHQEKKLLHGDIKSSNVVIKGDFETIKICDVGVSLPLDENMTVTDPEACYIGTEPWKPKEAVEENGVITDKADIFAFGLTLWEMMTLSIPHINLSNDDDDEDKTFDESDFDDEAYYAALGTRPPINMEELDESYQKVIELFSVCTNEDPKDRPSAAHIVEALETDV
# UniProt Q15118, whole entry, looked up: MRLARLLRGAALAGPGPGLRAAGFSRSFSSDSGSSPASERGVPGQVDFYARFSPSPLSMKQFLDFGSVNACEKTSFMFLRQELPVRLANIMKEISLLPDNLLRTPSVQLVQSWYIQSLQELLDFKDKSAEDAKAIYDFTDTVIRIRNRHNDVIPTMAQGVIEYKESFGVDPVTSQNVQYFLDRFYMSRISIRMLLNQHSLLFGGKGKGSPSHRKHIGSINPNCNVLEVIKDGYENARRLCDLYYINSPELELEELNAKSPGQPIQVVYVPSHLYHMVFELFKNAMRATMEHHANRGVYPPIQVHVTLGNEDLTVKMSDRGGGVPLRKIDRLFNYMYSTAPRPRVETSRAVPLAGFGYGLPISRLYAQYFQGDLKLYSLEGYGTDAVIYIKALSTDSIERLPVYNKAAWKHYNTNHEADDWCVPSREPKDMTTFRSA
# UniProt O15530: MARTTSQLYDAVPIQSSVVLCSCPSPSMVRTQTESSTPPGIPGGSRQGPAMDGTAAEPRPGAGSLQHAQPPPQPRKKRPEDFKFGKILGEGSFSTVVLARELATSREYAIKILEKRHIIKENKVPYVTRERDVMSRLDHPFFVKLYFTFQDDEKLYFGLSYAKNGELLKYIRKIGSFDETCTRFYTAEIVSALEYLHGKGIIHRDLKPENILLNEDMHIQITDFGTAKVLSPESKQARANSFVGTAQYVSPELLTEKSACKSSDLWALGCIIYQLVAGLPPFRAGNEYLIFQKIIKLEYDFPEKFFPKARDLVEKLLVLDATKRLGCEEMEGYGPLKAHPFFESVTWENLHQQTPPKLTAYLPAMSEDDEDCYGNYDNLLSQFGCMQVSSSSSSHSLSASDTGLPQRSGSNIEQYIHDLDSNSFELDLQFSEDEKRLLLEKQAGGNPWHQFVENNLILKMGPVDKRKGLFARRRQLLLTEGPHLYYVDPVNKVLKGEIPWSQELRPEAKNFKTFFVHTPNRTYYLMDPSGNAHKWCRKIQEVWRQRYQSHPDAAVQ
# UniProt P42356, whole entry, looked up: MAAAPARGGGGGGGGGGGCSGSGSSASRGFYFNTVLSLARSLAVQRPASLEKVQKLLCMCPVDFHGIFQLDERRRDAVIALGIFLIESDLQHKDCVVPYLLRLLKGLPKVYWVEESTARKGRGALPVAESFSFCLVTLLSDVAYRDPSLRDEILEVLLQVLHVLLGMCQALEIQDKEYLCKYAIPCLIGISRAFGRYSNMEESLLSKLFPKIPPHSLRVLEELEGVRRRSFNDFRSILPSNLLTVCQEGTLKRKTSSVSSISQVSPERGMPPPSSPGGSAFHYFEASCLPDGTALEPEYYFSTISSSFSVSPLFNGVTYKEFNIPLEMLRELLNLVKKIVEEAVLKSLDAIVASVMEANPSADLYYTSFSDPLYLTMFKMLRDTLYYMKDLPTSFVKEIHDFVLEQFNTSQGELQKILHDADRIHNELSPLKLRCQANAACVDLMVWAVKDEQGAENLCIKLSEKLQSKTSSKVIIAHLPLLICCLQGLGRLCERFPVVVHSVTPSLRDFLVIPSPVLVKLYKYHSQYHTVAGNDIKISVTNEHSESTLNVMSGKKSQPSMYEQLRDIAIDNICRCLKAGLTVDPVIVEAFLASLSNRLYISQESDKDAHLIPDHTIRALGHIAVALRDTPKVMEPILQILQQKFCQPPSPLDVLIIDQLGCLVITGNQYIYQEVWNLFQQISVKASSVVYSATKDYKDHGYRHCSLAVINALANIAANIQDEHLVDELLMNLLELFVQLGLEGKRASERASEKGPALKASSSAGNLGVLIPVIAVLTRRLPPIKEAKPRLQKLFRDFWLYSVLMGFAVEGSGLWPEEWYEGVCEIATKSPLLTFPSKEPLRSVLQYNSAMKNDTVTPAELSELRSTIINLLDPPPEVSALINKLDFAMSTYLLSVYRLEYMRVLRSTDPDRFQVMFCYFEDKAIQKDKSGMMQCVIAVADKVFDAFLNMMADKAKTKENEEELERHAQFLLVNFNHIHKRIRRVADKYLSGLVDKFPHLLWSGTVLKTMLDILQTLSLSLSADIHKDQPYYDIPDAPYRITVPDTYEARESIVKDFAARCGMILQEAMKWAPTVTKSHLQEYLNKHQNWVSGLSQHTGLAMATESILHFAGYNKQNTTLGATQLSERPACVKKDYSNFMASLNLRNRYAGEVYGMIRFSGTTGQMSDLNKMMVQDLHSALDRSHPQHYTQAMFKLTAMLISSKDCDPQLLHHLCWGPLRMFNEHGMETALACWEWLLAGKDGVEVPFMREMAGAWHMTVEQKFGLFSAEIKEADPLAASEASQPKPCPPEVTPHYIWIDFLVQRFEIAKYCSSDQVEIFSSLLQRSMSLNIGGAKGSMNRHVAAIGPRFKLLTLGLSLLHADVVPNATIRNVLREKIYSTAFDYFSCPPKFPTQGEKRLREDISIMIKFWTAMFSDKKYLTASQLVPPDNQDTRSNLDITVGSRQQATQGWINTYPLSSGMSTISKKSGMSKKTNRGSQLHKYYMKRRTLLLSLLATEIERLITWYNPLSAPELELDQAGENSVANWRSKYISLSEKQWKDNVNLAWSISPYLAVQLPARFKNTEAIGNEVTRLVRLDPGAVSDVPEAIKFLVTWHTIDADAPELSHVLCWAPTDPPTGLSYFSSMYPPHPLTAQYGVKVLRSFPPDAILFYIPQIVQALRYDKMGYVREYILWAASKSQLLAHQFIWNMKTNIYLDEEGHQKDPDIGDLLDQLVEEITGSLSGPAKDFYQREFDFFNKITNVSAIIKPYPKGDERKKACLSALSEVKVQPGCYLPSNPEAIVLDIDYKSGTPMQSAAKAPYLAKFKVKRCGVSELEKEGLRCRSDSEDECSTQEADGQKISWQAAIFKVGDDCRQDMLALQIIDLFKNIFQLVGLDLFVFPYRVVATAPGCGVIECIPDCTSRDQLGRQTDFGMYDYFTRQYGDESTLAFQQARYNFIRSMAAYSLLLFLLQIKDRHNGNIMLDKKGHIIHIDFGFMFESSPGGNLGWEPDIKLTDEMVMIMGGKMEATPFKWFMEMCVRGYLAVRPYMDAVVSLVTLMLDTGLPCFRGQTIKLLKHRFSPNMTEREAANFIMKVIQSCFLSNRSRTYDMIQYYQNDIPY
# UniProt Q9UBF8: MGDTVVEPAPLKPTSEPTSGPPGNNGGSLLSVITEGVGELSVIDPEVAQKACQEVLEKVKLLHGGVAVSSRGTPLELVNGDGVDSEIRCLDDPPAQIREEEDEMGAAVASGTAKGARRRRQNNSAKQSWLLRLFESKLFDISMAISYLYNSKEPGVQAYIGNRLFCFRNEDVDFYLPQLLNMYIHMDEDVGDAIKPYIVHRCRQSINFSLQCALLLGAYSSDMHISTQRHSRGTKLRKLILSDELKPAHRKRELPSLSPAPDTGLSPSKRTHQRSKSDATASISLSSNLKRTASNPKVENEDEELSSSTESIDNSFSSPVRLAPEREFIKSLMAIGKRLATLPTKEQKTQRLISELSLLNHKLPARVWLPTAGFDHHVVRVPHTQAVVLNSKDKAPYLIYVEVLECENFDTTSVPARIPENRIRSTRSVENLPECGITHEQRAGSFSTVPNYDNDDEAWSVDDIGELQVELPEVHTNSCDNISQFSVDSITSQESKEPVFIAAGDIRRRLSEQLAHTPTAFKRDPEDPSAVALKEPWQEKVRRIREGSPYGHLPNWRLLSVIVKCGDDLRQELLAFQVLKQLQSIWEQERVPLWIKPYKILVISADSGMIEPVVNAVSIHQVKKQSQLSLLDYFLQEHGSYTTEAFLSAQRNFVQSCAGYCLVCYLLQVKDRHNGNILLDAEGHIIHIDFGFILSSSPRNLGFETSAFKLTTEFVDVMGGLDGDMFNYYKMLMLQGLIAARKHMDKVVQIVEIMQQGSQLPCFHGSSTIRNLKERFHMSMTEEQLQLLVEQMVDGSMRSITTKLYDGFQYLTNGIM
# UniProt Q13131: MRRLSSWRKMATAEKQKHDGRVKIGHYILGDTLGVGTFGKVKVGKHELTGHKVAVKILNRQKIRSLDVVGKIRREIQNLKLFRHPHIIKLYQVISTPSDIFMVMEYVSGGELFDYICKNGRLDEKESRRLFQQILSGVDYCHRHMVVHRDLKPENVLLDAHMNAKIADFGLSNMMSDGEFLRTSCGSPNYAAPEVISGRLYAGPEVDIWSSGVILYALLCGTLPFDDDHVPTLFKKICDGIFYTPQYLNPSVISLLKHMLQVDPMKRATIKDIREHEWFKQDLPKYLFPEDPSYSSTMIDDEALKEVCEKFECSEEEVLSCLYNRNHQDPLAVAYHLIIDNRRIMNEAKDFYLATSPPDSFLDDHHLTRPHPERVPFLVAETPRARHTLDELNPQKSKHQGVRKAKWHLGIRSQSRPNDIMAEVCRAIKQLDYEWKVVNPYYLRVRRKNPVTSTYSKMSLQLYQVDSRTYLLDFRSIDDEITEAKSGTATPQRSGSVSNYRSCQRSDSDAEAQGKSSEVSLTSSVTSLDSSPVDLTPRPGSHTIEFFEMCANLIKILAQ
# Legend:
# Test in all cases: kinase-Nluc reporter destabilization hit call (1 = scored as downregulated) (binary); higher = compound decreases kinase abundance
# Conditions in all cases: K562, 2-18 h
# MAPK1 = MAPK1 (UniProt P28482)
# MAPK4 = MAPK4 (UniProt P31152)
# MAPKAPK2 = MAPKAPK2 (UniProt P49137)
# MKNK1 = MKNK1 (UniProt Q9BUB5)
# NTRK2 = NTRK2 (UniProt Q16620)
# NTRK3 = NTRK3 (UniProt Q16288)
# PAK4 = PAK4 (UniProt O96013)
# PBK = PBK (UniProt Q96KB5)
# PDGFRB = PDGFRB (UniProt P09619)
# PDK1 = PDK1 (UniProt Q15118)
# PDPK1 = PDPK1 (UniProt O15530)
# PIK4CA = PIK4CA (UniProt P42356)
# PIK4CB = PIK4CB (UniProt Q9UBF8)
# PLK1 = PLK1 (UniProt P53350)
# PRKAA1 = PRKAA1 (UniProt Q13131)
# PRKCA = PRKCA (UniProt P17252)
# PTK2 = PTK2 (UniProt Q05397)
# PTK2B = PTK2B (UniProt Q14289)
# RAF1 = RAF1 (UniProt P04049)
# [1] = molecular target: RAF1_S257L (clone: RAF1_mut) (UniProt P04049)
Compound,kinase-Nluc reporter destabilization hit call (MAPK1; 2.5 µM),kinase-Nluc reporter destabilization hit call (MAPK4; 2.5 µM),kinase-Nluc reporter destabilization hit call (MAPKAPK2; 2.5 µM),kinase-Nluc reporter destabilization hit call (MKNK1; 2.5 µM),kinase-Nluc reporter destabilization hit call (NTRK2; 2.5 µM),kinase-Nluc reporter destabilization hit call (NTRK3; 2.5 µM),kinase-Nluc reporter destabilization hit call (PAK4; 2.5 µM),kinase-Nluc reporter destabilization hit call (PBK; 2.5 µM),kinase-Nluc reporter destabilization hit call (PDGFRB; 2.5 µM),kinase-Nluc reporter destabilization hit call (PDK1; 2.5 µM),kinase-Nluc reporter destabilization hit call (PDPK1; 2.5 µM),kinase-Nluc reporter destabilization hit call (PIK4CA; 2.5 µM),kinase-Nluc reporter destabilization hit call (PIK4CB; 2.5 µM),kinase-Nluc reporter destabilization hit call (PLK1; 2.5 µM),kinase-Nluc reporter destabilization hit call (PRKAA1; 2.5 µM),kinase-Nluc reporter destabilization hit call (PRKCA; 2.5 µM),kinase-Nluc reporter destabilization hit call (PTK2; 2.5 µM),kinase-Nluc reporter destabilization hit call (PTK2B; 2.5 µM),kinase-Nluc reporter destabilization hit call (RAF1; 2.5 µM),kinase-Nluc reporter destabilization hit call ([1]; 2.5 µM),kinase-Nluc reporter destabilization hit call (MAPK1; 10 µM),kinase-Nluc reporter destabilization hit call (MAPK4; 10 µM),kinase-Nluc reporter destabilization hit call (MAPKAPK2; 10 µM),kinase-Nluc reporter destabilization hit call (MKNK1; 10 µM),kinase-Nluc reporter destabilization hit call (NTRK2; 10 µM),kinase-Nluc reporter destabilization hit call (NTRK3; 10 µM),kinase-Nluc reporter destabilization hit call (PAK4; 10 µM),kinase-Nluc reporter destabilization hit call (PBK; 10 µM),kinase-Nluc reporter destabilization hit call (PDGFRB; 10 µM),kinase-Nluc reporter destabilization hit call (PDK1; 10 µM),kinase-Nluc reporter destabilization hit call (PDPK1; 10 µM),kinase-Nluc reporter destabilization hit call (PIK4CA; 10 µM),kinase-Nluc reporter destabilization hit call (PIK4CB; 10 µM),kinase-Nluc reporter destabilization hit call (PLK1; 10 µM),kinase-Nluc reporter destabilization hit call (PRKAA1; 10 µM),kinase-Nluc reporter destabilization hit call (PRKCA; 10 µM),kinase-Nluc reporter destabilization hit call (PTK2; 10 µM),kinase-Nluc reporter destabilization hit call (PTK2B; 10 µM),kinase-Nluc reporter destabilization hit call (RAF1; 10 µM),kinase-Nluc reporter destabilization hit call ([1]; 10 µM)
Cc1cc(Nc2ncc(Cl)c(Nc3ccccc3S(=O)(=O)C(C)C)n2)c(OC(C)C)cc1C1CCNCC1 [Ceritinib dihydrochloride],inactive: 0,inactive: 0,inactive: 0,inactive: 0,inactive: 0,inactive: 0,inactive: 0,inactive: 0,inactive: 0,inactive: 0,inactive: 0,inactive: 0,inactive: 0,inactive: 0,inactive: 0,inactive: 0,inactive: 0,inactive: 0,inactive: 0,inactive: 0,,,,,,,,,,,,,,,,,,,,
COc1cc2nccc(Oc3ccc(NC(=O)C4(C(=O)Nc5ccc(F)cc5)CC4)cc3)c2cc1OC [Cabozantinib (S-malate)],,,,,,,,,,,,,,,,,,,,,inactive: 0,inactive: 0,inactive: 0,inactive: 0,inactive: 0,inactive: 0,inactive: 0,inactive: 0,inactive: 0,inactive: 0,inactive: 0,inactive: 0,inactive: 0,inactive: 0,inactive: 0,inactive: 0,inactive: 0,inactive: 0,inactive: 0,inactive: 0
CN(C)C(=O)c1cc2cnc(Nc3ccc(N4CCNCC4)cn3)nc2n1C1CCCC1 [Ribociclib],,,,,,,,,,,,,,,,,,,,,inactive: 0,inactive: 0,inactive: 0,inactive: 0,inactive: 0,inactive: 0,inactive: 0,inactive: 0,inactive: 0,inactive: 0,inactive: 0,inactive: 0,inactive: 0,inactive: 0,inactive: 0,inactive: 0,inactive: 0,inactive: 0,inactive: 0,inactive: 0
COc1cc2nccc(Nc3cc(OC)c(OC)c(OC)c3)c2cc1OC [GAK inhibitor 49],,,,,,,,,,,,,,,,,,,,,inactive: 0,inactive: 0,inactive: 0,inactive: 0,inactive: 0,inactive: 0,inactive: 0,inactive: 0,inactive: 0,inactive: 0,inactive: 0,inactive: 0,inactive: 0,inactive: 0,inactive: 0,inactive: 0,inactive: 0,inactive: 0,inactive: 0,inactive: 0
C#Cc1cccc(Nc2ncnc3cc(OCCOC)c(OCCOC)cc23)c1 [Erlotinib (Hydrochloride)],,,,,,,,,,,,,,,,,,,,,inactive: 0,inactive: 0,inactive: 0,inactive: 0,inactive: 0,inactive: 0,inactive: 0,inactive: 0,inactive: 0,inactive: 0,inactive: 0,inactive: 0,inactive: 0,inactive: 0,inactive: 0,inactive: 0,inactive: 0,inactive: 0,inactive: 0,inactive: 0
Cn1cc(-c2cnc3ccc4ccc(CS(=O)(=O)NCc5ccccn5)cc4c(=O)c3c2)cn1 [MK-8033 (hydrochloride)],,,,,,,,,,,,,,,,,,,,,inactive: 0,inactive: 0,inactive: 0,inactive: 0,inactive: 0,inactive: 0,inactive: 0,inactive: 0,inactive: 0,inactive: 0,inactive: 0,inactive: 0,inactive: 0,inactive: 0,inactive: 0,inactive: 0,inactive: 0,inactive: 0,inactive: 0,inactive: 0
O=C(Nc1ccncc1)Nc1ccc(-c2nc(N3CCOCC3)nc(N3C4CCC3COC4)n2)cc1 [PKI-179 (hydrochloride)],inactive: 0,inactive: 0,inactive: 0,inactive: 0,inactive: 0,inactive: 0,inactive: 0,inactive: 0,inactive: 0,inactive: 0,inactive: 0,inactive: 0,inactive: 0,inactive: 0,inactive: 0,inactive: 0,inactive: 0,inactive: 0,inactive: 0,inactive: 0,,,,,,,,,,,,,,,,,,,,
CCN(CC)CC(=O)Nc1c(C)cccc1C [Lidocaine (hydrochloride)],,,,,,,,,,,,,,,,,,,,,inactive: 0,inactive: 0,inactive: 0,inactive: 0,inactive: 0,inactive: 0,inactive: 0,inactive: 0,inactive: 0,inactive: 0,inactive: 0,inactive: 0,inactive: 0,inactive: 0,inactive: 0,inactive: 0,inactive: 0,inactive: 0,inactive: 0,inactive: 0
C[C@H](Nc1cc(-c2cnn(C)c2)cc(Nc2cnccn2)n1)c1ccc(F)cc1 [Ilginatinib hydrochloride],inactive: 0,inactive: 0,inactive: 0,inactive: 0,inactive: 0,inactive: 0,inactive: 0,inactive: 0,inactive: 0,inactive: 0,inactive: 0,inactive: 0,inactive: 0,inactive: 0,active: 1,inactive: 0,inactive: 0,inactive: 0,inactive: 0,inactive: 0,,,,,,,,,,,,,,,,,,,,
CC(C)(C)n1nc(-c2cccc3ccccc23)c2c(N)ncnc21 [1-Naphthyl PP1 (hydrochloride)],,,,,,,,,,,,,,,,,,,,,inactive: 0,inactive: 0,inactive: 0,inactive: 0,inactive: 0,inactive: 0,inactive: 0,inactive: 0,inactive: 0,inactive: 0,inactive: 0,inactive: 0,inactive: 0,inactive: 0,inactive: 0,inactive: 0,inactive: 0,inactive: 0,inactive: 0,inactive: 0
CCS(=O)(=O)N1CC(CC#N)(n2cc(-c3ncnc4[nH]ccc34)cn2)C1 [Baricitinib],,,,,,,,,,,,,,,,,,,,,inactive: 0,inactive: 0,inactive: 0,inactive: 0,inactive: 0,inactive: 0,inactive: 0,inactive: 0,inactive: 0,inactive: 0,inactive: 0,inactive: 0,inactive: 0,inactive: 0,inactive: 0,inactive: 0,inactive: 0,inactive: 0,inactive: 0,inactive: 0
CCN(CC)CC(=O)Nc1c(C)cccc1C [Lidocaine],,,,,,,,,,,,,,,,,,,,,inactive: 0,inactive: 0,inactive: 0,inactive: 0,inactive: 0,inactive: 0,inactive: 0,inactive: 0,inactive: 0,inactive: 0,inactive: 0,inactive: 0,inactive: 0,inactive: 0,inactive: 0,inactive: 0,inactive: 0,inactive: 0,inactive: 0,inactive: 0
CNC(=O)c1cc(Oc2ccc(NC(=O)Nc3ccc(Cl)c(C(F)(F)F)c3)c(F)c2)ccn1 [Regorafenib],inactive: 0,inactive: 0,inactive: 0,inactive: 0,inactive: 0,inactive: 0,inactive: 0,inactive: 0,inactive: 0,inactive: 0,inactive: 0,inactive: 0,inactive: 0,inactive: 0,inactive: 0,inactive: 0,inactive: 0,inactive: 0,inactive: 0,inactive: 0,,,,,,,,,,,,,,,,,,,,
Cc1cccc(/C=N/Nc2cc(N3CCOCC3)nc(OCCc3ccccn3)n2)c1 [Apilimod],inactive: 0,inactive: 0,inactive: 0,inactive: 0,inactive: 0,inactive: 0,inactive: 0,inactive: 0,inactive: 0,inactive: 0,inactive: 0,inactive: 0,inactive: 0,inactive: 0,inactive: 0,inactive: 0,inactive: 0,inactive: 0,inactive: 0,inactive: 0,,,,,,,,,,,,,,,,,,,,
Nc1cncc(-c2cn3ccnc3c(Nc3ccc(N4CCN(C5COC5)CC4)cc3)n2)n1 [Lanraplenib (succinate)],,,,,,,,,,,,,,,,,,,,,inactive: 0,inactive: 0,inactive: 0,inactive: 0,inactive: 0,inactive: 0,inactive: 0,inactive: 0,inactive: 0,inactive: 0,inactive: 0,inactive: 0,inactive: 0,inactive: 0,inactive: 0,inactive: 0,inactive: 0,inactive: 0,inactive: 0,inactive: 0
COc1cc2c(Oc3ccc4[nH]c(C)cc4c3F)ncnc2cc1OCCCN1CCCC1 [Cediranib (maleate)],inactive: 0,inactive: 0,inactive: 0,inactive: 0,inactive: 0,inactive: 0,inactive: 0,inactive: 0,inactive: 0,inactive: 0,inactive: 0,inactive: 0,inactive: 0,inactive: 0,inactive: 0,inactive: 0,inactive: 0,inactive: 0,inactive: 0,inactive: 0,,,,,,,,,,,,,,,,,,,,
O=C(Nc1ccncc1)Nc1ccc(-c2nc(N3CCOCC3)nc(N3C4CCC3COC4)n2)cc1,,,,,,,,,,,,,,,,,,,,,inactive: 0,inactive: 0,inactive: 0,inactive: 0,inactive: 0,inactive: 0,inactive: 0,inactive: 0,inactive: 0,inactive: 0,inactive: 0,inactive: 0,inactive: 0,inactive: 0,inactive: 0,inactive: 0,inactive: 0,inactive: 0,inactive: 0,inactive: 0

# Quoted from the listing:
# O=C(Nc1ccncc1)Nc1ccc(-c2nc(N3CCOCC3)nc(N3C4CCC3COC4)n2)cc1 | kinase-Nluc reporter destabilization hit call (PIK4CB; 10 µM): inactive: 0
# CCN(CC)CC(=O)Nc1c(C)cccc1C [Lidocaine] | kinase-Nluc reporter destabilization hit call (PRKCA; 10 µM): inactive: 0

# Source: the supplement of paper PMC12823440, “Inhibitors supercharge kinase turnover through native proteolytic circuits” (Nature, 2025)
